Source: patent US20170306031A1
No constants are given. Whether binding was seen depends on the method and setting. Some results given as binding are weak or reduced against the parent protein; the word gives no strength. Each block holds one binder with its values, some of them ahead of it.

Sequences of proteins named here, by UniProt entry; tags and fusion partners are left off. A change or cut given only in a name is not applied to a line headed by its entry.
UniProt Q6UXV0: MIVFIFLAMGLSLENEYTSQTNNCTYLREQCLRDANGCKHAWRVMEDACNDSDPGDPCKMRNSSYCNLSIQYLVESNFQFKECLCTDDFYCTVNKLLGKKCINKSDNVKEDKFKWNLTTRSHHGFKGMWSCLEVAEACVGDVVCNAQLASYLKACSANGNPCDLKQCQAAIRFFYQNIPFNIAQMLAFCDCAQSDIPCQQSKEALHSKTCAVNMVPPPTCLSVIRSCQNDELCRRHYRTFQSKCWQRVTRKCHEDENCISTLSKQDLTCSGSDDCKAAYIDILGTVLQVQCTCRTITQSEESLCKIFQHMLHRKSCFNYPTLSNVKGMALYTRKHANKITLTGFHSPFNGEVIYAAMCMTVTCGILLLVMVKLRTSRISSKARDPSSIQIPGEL
UniProt Q6SJE0: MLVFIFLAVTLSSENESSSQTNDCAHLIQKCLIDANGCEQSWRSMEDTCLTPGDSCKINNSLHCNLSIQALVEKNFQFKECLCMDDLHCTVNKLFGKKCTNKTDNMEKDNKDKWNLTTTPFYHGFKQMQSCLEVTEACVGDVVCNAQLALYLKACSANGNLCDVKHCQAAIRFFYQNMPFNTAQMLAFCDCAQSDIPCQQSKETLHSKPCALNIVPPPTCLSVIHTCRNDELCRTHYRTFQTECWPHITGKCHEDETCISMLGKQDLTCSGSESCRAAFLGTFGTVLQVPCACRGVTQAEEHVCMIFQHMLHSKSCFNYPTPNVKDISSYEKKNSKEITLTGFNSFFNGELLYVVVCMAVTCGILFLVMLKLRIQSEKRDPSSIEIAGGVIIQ

Assays:
[1] = biological target: human GFRAL (analyte in Biacore assays) (human) (UniProt Q6UXV0); assay: Biacore SPR (FIG. 3)
[2] = biological target: human GFRAL (analyte in Biacore assays) (human) (UniProt Q6UXV0); assay: SPR (FIGS. 13A and 13B)
[3] = biological target: mouse GFRAL (analyte in Biacore assays) (mouse) (UniProt Q6SJE0); assay: Biacore SPR, antibody captured, GFRAL injected

binding [1]: binds
B1: antibody designated 1C1 (antibody, V domains shown)
VH: QMQLKQSGPGLVQPSQSLSITCTVSGFSLNDYGVHWIRQSPGKGLEWLGVIWSGGRTDYNAAFISRLSISKDNSKSQVFFKMSSLQPQDTAIYYCARWALYFLYGGSMDYWGQGTSVTVSS
VL: DVVLTQTPLSLPVSPGDQASISCRSSQSLVHSSGITYLHWYLQKPGQSPKLLIYKLSNRFSGVPDRFSGSGSGTDFTLKISRVEAEDLGVYFCSQSTHVPPWTFGGGTKLEIK

binding [2]: binds
B2: humanized anti-GFRAL antibody HC-344e/LC-344h (antibody, IgG1, V domains shown)
VH: QVQLVQSGAEVKKPGSSVKVSCKASGYTFTDYGVIWVRQAPGQGLEWMGWINTYTGEPTYADDLKGRVTFTADESTSTAYMELSSLRSEDTAVYYCARRYGPEDIDYWGQGTTVTVSS
VL: DVVLTQSPLSLPVTLGQPASISCRASESVDNYGISFMSWFQQRPGQSPRLLIYAASHQGSGVPDRFSGSGSGTDFTLKISRVEAEDVGVYFCLQSKEVPWTFGGGTKVEIK

binding [3]: binds
B3: antibody designated 8C10 (antibody, V domains shown)
VH: QVQLQQSGVELARPGAAVKLSCKASGYTFANYGLTWVKQRTGQGLEWIGEIYPGSGHTHYNEDFKGKATLTADRSSSTAYMELRSLTSEDSAVYFCARRIQLLLPVGGFVYWGQGTLVTVSA
VL: DFVLTQSPATLSVTPGDSVSLSCRASQSISNNLHWYQQKSHESPRLLIKYASQSISGIPSRFSGSGSGTDFTLSINSVETEDFGVYFCQQSNSWPHTFGGGTKLEIK
